Measurements from publication PMC12040169 (PLOS Biology, 2025).
The list shows a part of the results.

tested on: T1, CTL2-GFP (C. trachomatis L2/434/Bu, GFP-expressing); set-up: species or system HeLa; Intracellular C. trachomatis growth in HeLa cells, bulk GFP fluorescence relative to DMSO; settings: bulk GFP, single well; 28.5 h, 10 µM; inhibitor
T1 construct: L2/434/Bu, GFP-expressing

SMILES | % of control remaining [%]
O=C(Nc1nccc(-c2cc(OCC(F)(F)F)ccc2OCC(F)(F)F)n1)c1cccs1 [CBK005949] | 70.4243
Cn1c(=O)c2[nH]c(N3CCN(c4cccc(O)c4)CC3)nc2n(C)c1=O [CBK269760] | 90.7679
Cc1nonc1CC(=O)NC1(c2ccc(F)cc2)CCCC1 [CBK283613] | 117.181
Cc1ccc(C(CCO)Nc2ncnc3c2c(C)nn3C)cc1 (stereo not shown) [CBK307387] | 118.147
COc1ncc(-c2nccnc2OCCn2cnc3c2c(=O)n(C)c(=O)n3C)c(OC)n1 [CBK106746] | 102.388
CN(C)C(=O)c1ccc(-c2ccc3c(c2)OC(C2CCN(C(=O)OCc4ccccc4)CC2)OC3)cc1 (stereo not shown) [CBK144649] | 116.133
Cc1cc(CN2CCN(S(=O)(=O)c3ccc(-c4ccccc4)cc3)CC2)cc(C)c1O [CBK062747] | 88.1511
COc1ccc(S(=O)(=O)Nc2cc(C(=O)O)ccc2C)cc1NC(C)=O [CBK296946] | 148.884
Cc1cc(CNS(=O)(=O)c2sc3ccc(C(C)C)cc3c2C)no1 [CBK170353] | 118.304
O=C1C2C3C=CC(C3)C2C(=O)N1CCN1CCN(S(=O)(=O)/C=C/c2ccccc2)CC1 (stereo not shown) [CBK263663] | 130.368
CCn1cc(CN2CCCN(C(=O)c3cn4ccccc4n3)CC2)cn1 [CBK304784] | 143.369
N#Cc1c(NC(=O)CN2CCN(Cc3ccccc3)CC2)sc2c1CCCC2 [CBK267969] | 107.032
O=[N+]([O-])c1ccc(CN2CCN(Cc3cc(Br)ccc3O)CC2)cc1 [CBK263652G] | 102.689
CNCC(=O)N[C@H]1CCN2C(=O)c3ccc(Cl)cc3NC(=O)[C@@H]2C1 [CBK289566] | 145.823
O=C(CCNC(Cc1ccccc1)C(=O)O)c1ccccc1 (stereo not shown) [CBK286655] | 123.862
COc1ccccc1C(=O)NCCCc1nc2ccccc2[nH]1 [CBK269837] | 120.796
O=C(N/N=C/c1ccc[nH]1)C1CC1c1ccccc1 (stereo not shown) [CBK022120] | 166.753
NCCNCCCCOc1ccc(Cl)c(Cl)c1 [CBK265059] | 84.7767
COc1ccc(-c2nc(NC3CCCCC3)c3ccccc3n2)cc1 [CBK058109] | 105.828
O=C(NNC(=O)C(O)c1ccccc1)NC1CCCCC1 (stereo not shown) [CBK262625] | 108.204
N#Cc1ccc(OCC(=O)Nc2ncccn2)cc1 [CBK304578] | 84.103
CCCCCC(=O)Nc1c(C)cc(Br)cc1C [CBK058159] | 126.196

A run of entries of the results above:
SMILES | % of control remaining [%]
Cc1cc(CN2CCN(S(=O)(=O)c3ccc(-c4ccccc4)cc3)CC2)cc(C)c1O [CBK062747] | 88.1511
COc1ccc(S(=O)(=O)Nc2cc(C(=O)O)ccc2C)cc1NC(C)=O [CBK296946] | 148.884
